# In the supplement of paper PMC8728848:
# Some of the results follow.
# B1: pTFF2 (Sus scrofa), P01359 (protein)
# chain: KPAACRCSRQDPKNRVNCGFPGITSDQCFTSGCCFDSQVPGVPWCFKPLPAQESEECVMEVSARKNCGYPGISPEDCAARNCCFSDTIPEVPWCFFPMSVEACHY
# Legend:
# Assay in all cases: glycan array binding signal (z-score within array); higher = stronger binding
# Details in all cases: glycan notation: IUPAC condensed, linker removed
# [1] = target: Gal(b1-4)GlcNAc(b1-3)Gal(b1-4)GlcNAc(b1-2)Man(a1-3)[Gal(b1-4)GlcNAc(b1-3)Gal(b1-4)GlcNAc(b1-2)Man(a1-6)]Man(b1-4)GlcNAc(b1-4)[Fuc(a1-6)]GlcNAc
# Summary of the method: (§1)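 From the Consortium for Functional Glycomics database, 3228 arrays were curated, keeping only those whose protein sequence was available. Binding is given as a within-array Z-score averaged across arrays sharing a protein sequence and across linkers. Negative Z-scores can be read as non-binding.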
# [2] = target: Gal(b1-4)GlcNAc(b1-3)Gal(b1-4)GlcNAc(b1-2)[Gal(b1-4)GlcNAc(b1-3)Gal(b1-4)GlcNAc(b1-6)]Man(a1-6)[Gal(b1-4)GlcNAc(b1-3)Gal(b1-4)GlcNAc(b1-2)Man(a1-3)]Man(b1-4)GlcNAc(b1-4)GlcNAc
# Summary of the method: as §1
# [3] = target: Gal(b1-4)GlcNAc(b1-3)Gal(b1-4)GlcNAc(b1-2)[Gal(b1-4)GlcNAc(b1-3)Gal(b1-4)GlcNAc(b1-6)]Man(a1-6)[Gal(b1-4)GlcNAc(b1-3)Gal(b1-4)GlcNAc(b1-2)Man(a1-3)]Man(b1-4)GlcNAc(b1-4)[Fuc(a1-6)]GlcNAc
# Summary of the method: as §1
# [4] = target: Gal(b1-4)GlcNAc(b1-3)Gal(b1-4)GlcNAc(b1-3)Gal(b1-4)GlcNAc
# Summary of the method: as §1
# [5] = target: Gal(b1-4)GlcNAc(b1-3)Gal(b1-4)GlcNAc(b1-3)Gal(b1-4)GlcNAc(b1-2)Man(a1-3)[Gal(b1-4)GlcNAc(b1-3)Gal(b1-4)GlcNAc(b1-3)Gal(b1-4)GlcNAc(b1-2)Man(a1-6)]Man(b1-4)GlcNAc(b1-4)GlcNAc
# Summary of the method: as §1
# [6] = target: Gal(b1-4)GlcNAc(b1-3)Gal(b1-4)GlcNAc(b1-3)Gal(b1-4)GlcNAc(b1-2)Man(a1-3)[Gal(b1-4)GlcNAc(b1-3)Gal(b1-4)GlcNAc(b1-3)Gal(b1-4)GlcNAc(b1-2)Man(a1-6)]Man(b1-4)GlcNAc(b1-4)[Fuc(a1-6)]GlcNAc
# Summary of the method: as §1
# [7] = target: Gal(b1-4)GlcNAc(b1-3)Gal(b1-4)GlcNAc(b1-3)Gal(b1-4)GlcNAc(b1-2)[Gal(b1-4)GlcNAc(b1-3)Gal(b1-4)GlcNAc(b1-3)Gal(b1-4)GlcNAc(b1-6)]Man(a1-6)[Gal(b1-4)GlcNAc(b1-3)Gal(b1-4)GlcNAc(b1-3)Gal(b1-4)GlcNAc(b1-2)Man(a1-3)]Man(b1-4)GlcNAc(b1-4)[Fuc(a1-6)]GlcNAc
# Summary of the method: as §1
# [8] = target: Gal(b1-4)GlcNAc(b1-3)Gal(b1-4)GlcNAc(b1-3)Gal(b1-4)GlcNAc(b1-3)Gal(b1-4)GlcNAc(b1-2)Man(a1-3)[Gal(b1-4)GlcNAc(b1-3)Gal(b1-4)GlcNAc(b1-3)Gal(b1-4)GlcNAc(b1-3)Gal(b1-4)GlcNAc(b1-2)Man(a1-6)]Man(b1-4)GlcNAc(b1-4)GlcNAc
# Summary of the method: as §1
# [9] = target: Gal(b1-4)GlcNAc(b1-3)Gal(b1-4)GlcNAc(b1-3)Gal(b1-4)GlcNAc(b1-3)Gal(b1-4)GlcNAc(b1-2)Man(a1-3)[Gal(b1-4)GlcNAc(b1-3)Gal(b1-4)GlcNAc(b1-3)Gal(b1-4)GlcNAc(b1-3)Gal(b1-4)GlcNAc(b1-2)Man(a1-6)]Man(b1-4)GlcNAc(b1-4)[Fuc(a1-6)]GlcNAc
# Summary of the method: as §1
# [10] = target: Gal(b1-4)GlcNAc(b1-3)Gal(b1-4)GlcNAc(b1-3)Gal(b1-4)GlcNAc(b1-3)Gal(b1-4)GlcNAc(b1-2)[Gal(b1-4)GlcNAc(b1-3)Gal(b1-4)GlcNAc(b1-3)Gal(b1-4)GlcNAc(b1-3)Gal(b1-4)GlcNAc(b1-6)]Man(a1-6)[Gal(b1-4)GlcNAc(b1-3)Gal(b1-4)GlcNAc(b1-3)Gal(b1-4)GlcNAc(b1-3)Gal(b1-4)GlcNAc(b1-2)Man(a1-3)]Man(b1-4)GlcNAc(b1-4)[Fuc(a1-6)]GlcNAc
# Summary of the method: as §1
# [11] = target: Gal(b1-4)GlcNAc(b1-3)Gal(b1-4)GlcNAc(b1-3)Gal(b1-4)GlcNAc(b1-3)Gal(b1-4)GlcNAc(b1-3)Gal(b1-4)GlcNAc(b1-2)Man(a1-3)[Gal(b1-4)GlcNAc(b1-3)Gal(b1-4)GlcNAc(b1-3)Gal(b1-4)GlcNAc(b1-3)Gal(b1-4)GlcNAc(b1-3)Gal(b1-4)GlcNAc(b1-2)Man(a1-6)]Man(b1-4)GlcNAc(b1-4)GlcNAc
# Summary of the method: as §1
# [12] = target: Gal(b1-4)GlcNAc(b1-3)Gal(b1-4)GlcNAc(b1-3)Gal(b1-4)GlcNAc(b1-3)Gal(b1-4)GlcNAc(b1-3)Gal(b1-4)GlcNAc(b1-2)Man(a1-3)[Gal(b1-4)GlcNAc(b1-3)Gal(b1-4)GlcNAc(b1-3)Gal(b1-4)GlcNAc(b1-3)Gal(b1-4)GlcNAc(b1-3)Gal(b1-4)GlcNAc(b1-2)Man(a1-6)]Man(b1-4)GlcNAc(b1-4)[Fuc(a1-6)]GlcNAc
# Summary of the method: as §1
# [13] = target: Gal(b1-4)GlcNAc(b1-3)Gal(b1-4)GlcNAc(b1-3)Gal(b1-4)GlcNAc(b1-3)Gal(b1-4)GlcNAc(b1-3)Gal(b1-4)GlcNAc(b1-2)[Gal(b1-4)GlcNAc(b1-3)Gal(b1-4)GlcNAc(b1-3)Gal(b1-4)GlcNAc(b1-3)Gal(b1-4)GlcNAc(b1-3)Gal(b1-4)GlcNAc(b1-6)]Man(a1-6)[Gal(b1-4)GlcNAc(b1-3)Gal(b1-4)GlcNAc(b1-3)Gal(b1-4)GlcNAc(b1-3)Gal(b1-4)GlcNAc(b1-3)Gal(b1-4)GlcNAc(b1-2)Man(a1-3)]Man(b1-4)GlcNAc(b1-4)[Fuc(a1-6)]GlcNAc
# Summary of the method: as §1
# [14] = target: Gal(b1-4)GlcNAc(b1-3)Gal(b1-4)GlcNAc(b1-3)Gal(b1-4)GlcNAc(b1-3)Gal(b1-4)GlcNAc(b1-3)Gal(b1-4)GlcNAc(b1-3)Gal(b1-4)GlcNAc(b1-2)Man(a1-3)[Gal(b1-4)GlcNAc(b1-3)Gal(b1-4)GlcNAc(b1-3)Gal(b1-4)GlcNAc(b1-3)Gal(b1-4)GlcNAc(b1-3)Gal(b1-4)GlcNAc(b1-3)Gal(b1-4)GlcNAc(b1-2)Man(a1-6)]Man(b1-4)GlcNAc(b1-4)GlcNAc
# Summary of the method: as §1
# [15] = target: Gal(b1-4)GlcNAc(b1-3)Gal(b1-4)GlcNAc(b1-3)GalNAc
# Summary of the method: as §1
# [16] = target: Gal(b1-4)GlcNAc(b1-3)Gal(b1-4)GlcNAc(b1-3)[Gal(b1-4)GlcNAc(b1-3)Gal(b1-4)GlcNAc(b1-6)]GalNAc
# Summary of the method: as §1
# [17] = target: Gal(b1-4)GlcNAc(b1-3)Gal(b1-4)GlcNAc(b1-6)[Gal(b1-3)]GalNAc
# Summary of the method: as §1
# [18] = target: Gal(b1-4)GlcNAc(b1-3)Gal(b1-4)[Fuc(a1-3)]GlcNAc(b1-3)Gal(b1-4)[Fuc(a1-3)]GlcNAc
# Summary of the method: as §1
# [19] = target: Gal(b1-4)GlcNAc(b1-3)GalNAc
# Summary of the method: as §1
# [20] = target: Gal(b1-4)GlcNAc(b1-3)[Fuc(a1-3)GlcNAc(b1-6)]Gal(b1-4)Glc
# Summary of the method: as §1
# [21] = target: Gal(b1-4)GlcNAc(b1-3)[Gal(b1-4)GlcNAc(b1-6)]Gal(b1-4)GlcNAc
# Summary of the method: as §1
# [22] = target: Gal(b1-4)GlcNAc(b1-3)[GlcNAc(b1-6)]Gal(b1-4)GlcNAc
# Summary of the method: as §1
# [23] = target: Gal(b1-4)GlcNAc(b1-6)Gal(b1-4)GlcNAc
# Summary of the method: as §1
# [24] = target: Gal(b1-4)GlcNAc(b1-6)GalNAc
# Summary of the method: as §1
# [25] = target: Gal(b1-4)GlcNAc(b1-6)[Gal(b1-3)]GalNAc
# Summary of the method: as §1
# [26] = target: Gal(b1-4)GlcNAc(b1-6)[Gal(b1-4)GlcNAc(b1-3)]GalNAc
# Summary of the method: as §1
# Gal(b1-4)GlcNAc6P = target: Gal(b1-4)GlcNAc6P
# Summary of the method: as §1
# Gal(b1-6)Gal = target: Gal(b1-6)Gal
# Summary of the method: as §1
# Gal3S(b1-3)GalNAc = target: Gal3S(b1-3)GalNAc
# Summary of the method: as §1
# Gal3S(b1-3)GlcNAc = target: Gal3S(b1-3)GlcNAc
# Summary of the method: as §1
# [27] = target: Gal3S(b1-3)[Fuc(a1-4)]GlcNAc
# Summary of the method: as §1
# Gal3S(b1-4)Glc = target: Gal3S(b1-4)Glc
# Summary of the method: as §1
# Gal3S(b1-4)Glc6S = target: Gal3S(b1-4)Glc6S
# Summary of the method: as §1
# Gal3S(b1-4)GlcNAc = target: Gal3S(b1-4)GlcNAc
# Summary of the method: as §1
# [28] = target: Gal3S(b1-4)[Fuc(a1-3)]Glc6S
# Summary of the method: as §1
# [29] = target: Gal3S(b1-4)[Fuc(a1-3)]GlcNAc
# Summary of the method: as §1
# [30] = target: Gal3S(b1-4)[Fuc(a1-3)]GlcNAc6S
# Summary of the method: as §1
# Gal3S4S(b1-4)GlcNAc = target: Gal3S4S(b1-4)GlcNAc
# Summary of the method: as §1
# Gal3S6S(b1-4)GlcNAc = target: Gal3S6S(b1-4)GlcNAc
# Summary of the method: as §1
# Gal3S6S(b1-4)GlcNAc6S = target: Gal3S6S(b1-4)GlcNAc6S
# Summary of the method: as §1
# Gal4S(b1-4)GlcNAc = target: Gal4S(b1-4)GlcNAc
# Summary of the method: as §1
# Gal4S6S(b1-4)GlcNAc = target: Gal4S6S(b1-4)GlcNAc
# Summary of the method: as §1
# Gal6P(b1-4)GlcNAc = target: Gal6P(b1-4)GlcNAc
# Summary of the method: as §1
# Gal6S(b1-3)GlcNAc = target: Gal6S(b1-3)GlcNAc
# Summary of the method: as §1
# Gal6S(b1-3)GlcNAc6S = target: Gal6S(b1-3)GlcNAc6S
# Summary of the method: as §1
binder,measurement,setting,value
B1,glycan array binding signal (z-score),[1],0.737
same,glycan array binding signal (z-score),[2],0.213
same,glycan array binding signal (z-score),[3],0.346
same,glycan array binding signal (z-score),[4],0.696
same,glycan array binding signal (z-score),[5],0.452
same,glycan array binding signal (z-score),[6],1.42
same,glycan array binding signal (z-score),[7],0.478
same,glycan array binding signal (z-score),[8],0.985
same,glycan array binding signal (z-score),[9],1.85
same,glycan array binding signal (z-score),[10],-0.245
same,glycan array binding signal (z-score),[11],2.48
same,glycan array binding signal (z-score),[12],2.62
same,glycan array binding signal (z-score),[13],-0.433
same,glycan array binding signal (z-score),[14],-0.498
same,glycan array binding signal (z-score),[15],-0.711
same,glycan array binding signal (z-score),[16],0.771
same,glycan array binding signal (z-score),[17],0.298
same,glycan array binding signal (z-score),[18],1.09
same,glycan array binding signal (z-score),[19],-0.029
same,glycan array binding signal (z-score),[20],-0.361
same,glycan array binding signal (z-score),[21],-0.434
same,glycan array binding signal (z-score),[22],-0.548
same,glycan array binding signal (z-score),[23],-1.25
same,glycan array binding signal (z-score),[24],-0.755
same,glycan array binding signal (z-score),[25],1.73
same,glycan array binding signal (z-score),[26],-0.34
same,glycan array binding signal (z-score),Gal(b1-4)GlcNAc6P,-0.191
same,glycan array binding signal (z-score),Gal(b1-6)Gal,0.252
same,glycan array binding signal (z-score),Gal3S(b1-3)GalNAc,0.185
same,glycan array binding signal (z-score),Gal3S(b1-3)GlcNAc,0.204
same,glycan array binding signal (z-score),[27],-0.013
same,glycan array binding signal (z-score),Gal3S(b1-4)Glc,-0.465
same,glycan array binding signal (z-score),Gal3S(b1-4)Glc6S,0.305
same,glycan array binding signal (z-score),Gal3S(b1-4)GlcNAc,-0.175
same,glycan array binding signal (z-score),[28],-0.105
same,glycan array binding signal (z-score),[29],-1.21
same,glycan array binding signal (z-score),[30],-0.755
same,glycan array binding signal (z-score),Gal3S4S(b1-4)GlcNAc,0.606
same,glycan array binding signal (z-score),Gal3S6S(b1-4)GlcNAc,-1.01
same,glycan array binding signal (z-score),Gal3S6S(b1-4)GlcNAc6S,1.86
same,glycan array binding signal (z-score),Gal4S(b1-4)GlcNAc,0.493
same,glycan array binding signal (z-score),Gal4S6S(b1-4)GlcNAc,-0.182
same,glycan array binding signal (z-score),Gal6P(b1-4)GlcNAc,0.214
same,glycan array binding signal (z-score),Gal6S(b1-3)GlcNAc,-2.99
same,glycan array binding signal (z-score),Gal6S(b1-3)GlcNAc6S,-1.65

# Another view of some results above:
binder | measurement | setting | value
B1 | glycan array binding signal (z-score) | [24] | -0.755
same | glycan array binding signal (z-score) | [25] | 1.73
same | glycan array binding signal (z-score) | [26] | -0.34
